# Assay results as given in the supplement of paper PMC4683952.
# Where a name gives a salt, the structure may show the parent alone. The list shows a part of the results. Cut-off read from the data, not from the text of the source: active = 2.5 or more and inactive = the rest. Most values lie within the scatter of the assay; repeated measurements hardly agree.
# Test system: Lgr5 (MarsCy1-Lgr5-EGFP, U2OS)
# Assay: cell-surface Lgr5 expression (SCi1 fluorescence, background-subtracted) relative to WT control (fold of WT control); higher = more Lgr5 at the plasma membrane
# Conditions: U2OS MarsCy1-Lgr5-EGFP stable; treatment time: overnight; library: Prestwick; 20 µM
row,Compound,cell-surface Lgr5 expression
1,CCN1C[C@]2(C)CC[C@H](OC)[C@@]34C1[C@]1(OCO[C@@]15C[C@H](OC)[C@H]1C[C@]3(O)[C@@H]5[C@H]1OC)[C@@H](OC(C)=O)[C@H]24 [Deltaline],inactive: 1.92
2,CC[C@H]1CN2CCc3cc(OC)c(OC)cc3[C@@H]2C[C@@H]1C[C@H]1NCCc2cc(O)c(OC)cc21 [Cephaeline dihydrochloride heptahydrate],inactive: -0.159
3,CC1=CC(=O)C2=C(C)C[C@H](O)[C@@H]3[C@H](OC(=O)[C@H]3C)[C@H]12 [Austricine],inactive: 1.21
4,C[C@]12CC[C@@H](O)C[C@@H]1CC[C@@H]1[C@@H]2CC[C@]2(C)C(=O)CC[C@@H]12 [Androsterone],inactive: 1.1
5,"CNCC(O)c1ccc(O)cc1 (racemic) [(+,-)-Synephrine]",inactive: 1.23
6,COc1cc2c(cc1O)[C@@H]1Cc3ccc(OC)c(O)c3CN1CC2 [Scoulerine],inactive: 1.68
7,C1CCc2nnnn2CC1 [Pentylenetetrazole],inactive: 1.42
8,CC(Cc1ccc(O)cc1)NCC(O)c1cc(O)cc(O)c1 (configuration not stated) [Fenoterol hydrobromide],inactive: 2.1
9,C=C1[C@@H]2CC[C@H]3[C@]4(C)C[C@H](O[C@@H]5O[C@H](CO)[C@@H](OS(=O)(=O)O)[C@H](OS(=O)(=O)O)[C@H]5OC(=O)CC(C)C)C[C@@H](C(=O)O)[C@H]4CC[C@]3(C2)[C@@H]1O [Atractyloside potassium salt],inactive: 1.5
10,C=C[C@H]1CN2CC[C@H]1C[C@@H]2[C@@H](O)c1ccnc2ccccc12 [Cinchonine],inactive: 1.17
11,COc1cc2c3cc1Oc1cc(ccc1O)C[C@@H]1c4c(cc(OC)c(O)c4Oc4cccc(c4)C[C@@H]3N(C)CC2)CC[N+]1(C)C [Tubocurarine chloride pentahydrate (+)],inactive: 1.94
12,C=C[C@H]1CN2CC[C@H]1C[C@H]2[C@H](O)c1ccnc2ccccc12 [(-)-Cinchonidine],inactive: 2.48
13,CC1=NCCc2c1[nH]c1cc(O)ccc21 [Harmalol hydrochloride dihydrate],active: 2.89
14,COc1ccc2c(c1)[C@]13CCCC[C@@H]1[C@H](C2)N(C)CC3 [Dextromethorphan hydrobromide monohydrate],inactive: 1.71
15,CCN(CC)C(=O)N[C@H]1C=C2c3cccc4[nH]cc(c34)C[C@H]2N(C)C1 [Lisuride (S)(-)],inactive: 1.39
16,C[C@]12CC[C@H]3[C@@H](CC[C@]4(O)C[C@@H](O)CC[C@]34C=O)[C@@]1(O)CC[C@@H]2C1=CC(=O)OC1 [Strophanthidin],inactive: 0.703
17,S=C(NC1CCCCC1)N1CCC(c2cnc[nH]2)CC1 [Thioperamide maleate],inactive: 2.37
18,CN1[C@@H]2CCC[C@H]1CC(=O)C2 [Pseudopelletierine hydrochloride],inactive: 1.79
19,CCN(CC)C(=O)N[C@@H]1CC2c3cccc4[nH]cc(c34)CC2N(C)C1 (stereo partly drawn) [S(-)-terguride hydrogen maleate],inactive: 1.81

# Nothing new here: two of the compounds above.
row,Compound,cell-surface Lgr5 expression
1,CCN1C[C@]2(C)CC[C@H](OC)[C@@]34C1[C@]1(OCO[C@@]15C[C@H](OC)[C@H]1C[C@]3(O)[C@@H]5[C@H]1OC)[C@@H](OC(C)=O)[C@H]24 [Deltaline],inactive: 1.92
2,CC[C@H]1CN2CCc3cc(OC)c(OC)cc3[C@@H]2C[C@@H]1C[C@H]1NCCc2cc(O)c(OC)cc21 [Cephaeline dihydrochloride heptahydrate],inactive: -0.159

# Next part.

row,Compound,cell-surface Lgr5 expression
1,"NC(N)=NOCC[C@H](N)C(=O)O [Canavanine sulfate monohydrate (L,+)]",inactive: 1.21
2,C#C[C@]1(O)CC[C@H]2[C@@H]3CCC4=CC(=O)CC[C@]4(C)[C@H]3CC[C@@]21C [Ethisterone],active: 2.87
3,C=C1[C@H]2C[C@@]3([C@@H]1O)[C@@H](C[C@@H]2O)[C@]12[C@@H]4C[C@H]3[C@H]1N(CC)C[C@]4(C)CC[C@@H]2O [Napelline],inactive: 1.32
4,C/C=C1/C[N+]2(C)CCC34C(=C(C=O)[C@H]1C[C@@H]32)Nc1ccccc14 (some centres not stated) [Fluorocurarine chloride],inactive: 1.87
5,CC(C)[N+](C)(CCC(C(N)=O)(c1ccccc1)c1ccccc1)C(C)C [Isopropamide iodide],inactive: 1.75
6,O=C([O-])c1ccccc1-c1c2cc(Br)c(=O)cc-2oc2[c]([Hg+])c([O-])c(Br)cc12.[Na+].[Na+].[OH-] [Merbromin],inactive: 2.23
7,O=c1[nH]c2ccccc2n1CCCN1CCC(n2c(=O)[nH]c3cc(Cl)ccc32)CC1 [Domperidone maleate],inactive: 1.1
8,O=C(O)CCCc1ccc(N(CCCl)CCCl)cc1 [Chlorambucil],inactive: 0.889
9,C[C@]12CCC(=O)C=C1CC[C@@H]1[C@@H]2C(=O)C[C@]2(C)C(=O)CC[C@@H]12 [Adrenosterone],inactive: 2.11
10,CC[C@H](C)[C@H]1O[C@]2(C=C[C@@H]1C)C[C@@H]1C[C@@H](C/C=C(\C)[C@@H](O[C@H]3C[C@H](OC)[C@@H](O[C@H]4C[C@H](OC)[C@@H](O)[C@H](C)O4)[C@H](C)O3)[C@@H](C)/C=C/C=C3\CO[C@@H]4[C@H](O)C(C)=C[C@@H](C(=O)O1)[C@]34O)O2.CO[C@H]1C[C@H](O[C@H]2[C@H](C)O[C@@H](O[C@@H]3/C(C)=C/C[C@@H]4C[C@@H](C[C@]5(C=C[C@H](C)[C@@H](C(C)C)O5)O4)OC(=O)[C@@H]4C=C(C)[C@@H](O)[C@H]5OC/C(=C\C=C\[C@@H]3C)[C@]54O)C[C@@H]2OC)O[C@@H](C)[C@@H]1O [Avermectin B1],inactive: 2.08
11,CN(C)Cc1c[nH]c2ccccc12 [Gramine],active: 2.66
12,C[N+]1(C)CCOC(O)(c2ccc(-c3ccc(C4(O)C[N+](C)(C)CCO4)cc3)cc2)C1 (configuration not stated) [Hemicholinium bromide],inactive: 1.19
13,COc1ccn(C)c(=O)c1C#N [Ricinine],inactive: 1.57
14,O=C1C=C2C=C[C@@H]3C[C@@]2(O1)[C@H]1CCCCN31 [Securinine],inactive: 1.45
15,COc1ccc2[nH]c3c(c2c1)CCN=C3C [Methoxy-6-harmalan],active: 2.99
16,CC(C)[C@@]1(NC(=O)[C@@H]2C[C@@H]3c4cccc5[nH]cc(c45)C[C@H]3N(C)C2)O[C@@]2(O)[C@@H]3CCCN3C(=O)[C@H](Cc3ccccc3)N2C1=O [Dihydroergocristine mesylate],active: 4.11
17,C[N+]1(C)[C@@H]2CC[C@H]1C[C@@H](OC(=O)C(CO)c1ccccc1)C2 (some centres not stated) [Methylatropine nitrate],inactive: 1.88
18,CN1C[C@H](C(=O)N[C@]2(C)O[C@@]3(O)[C@@H]4CCCN4C(=O)[C@H](Cc4ccccc4)N3C2=O)C[C@@H]2c3cccc4[nH]cc(c34)C[C@H]21 [Dihydroergotamine tartrate],inactive: 1.59
19,c1ccc2nc(N3CCNCC3)ccc2c1 [Quipazine dimaleate salt],active: 2.58

row,Compound,cell-surface Lgr5 expression
1,C[N+](C)(C)CCCCCCCCCC[N+](C)(C)C [Decamethonium bromide],inactive: 1.14
2,"CC[C@@]1(O)C(=O)OCc2c1cc1n(c2=O)Cc2cc3ccccc3nc2-1 [Camptothecine (S,+)]",inactive: 0.472
3,CCC(=O)O[C@@](Cc1ccccc1)(c1ccccc1)[C@@H](C)CN(C)C [Levopropoxyphene napsylate],inactive: 1.27
4,CCCCc1ccc(C(=O)O)nc1 [Fusaric acid],inactive: 1.67
5,CCCN1C[C@H](CSC)C[C@@H]2c3cccc4[nH]cc(c34)C[C@H]21 [Pergolide mesylate],inactive: 1.66
6,O[C@@H]1CCCC[C@H]1N1CCC(c2ccccc2)CC1 [L(-)-vesamicol hydrochloride],inactive: 1.31
7,C[N+]1([O-])[C@@H]2C[C@@H](OC(=O)[C@H](CO)c3ccccc3)C[C@H]1[C@@H]1O[C@@H]12 (some centres not stated) [Scopolamin-N-oxide hydrobromide],inactive: 0.814
8,C[C@]12N[C@H](Cc3ccccc31)c1ccccc12 [Dizocilpine maleate],inactive: 1.27
9,CC(=O)O[C@H]1C[C@H](O[C@H]2[C@@H](O)C[C@H](O[C@H]3[C@@H](O)C[C@H](O[C@H]4CC[C@@]5(C)[C@H](CC[C@@H]6[C@@H]5C[C@@H](O)[C@]5(C)[C@@H](C7=CC(=O)OC7)CC[C@]65O)C4)O[C@@H]3C)O[C@@H]2C)O[C@H](C)[C@H]1O[C@@H]1O[C@H](CO)[C@@H](O)[C@H](O)[C@H]1O [Lanatoside C],inactive: 1.06
10,COc1ccc(CCN2CCC(Nc3nc4ccccc4n3Cc3ccc(F)cc3)CC2)cc1 [Astemizole],inactive: 0.725
11,CN1C[C@H](CO)C=C2c3cccc4[nH]cc(c34)C[C@H]21 [Lysergol],inactive: 0.413
12,C/C=C1\C[C@@H](C)[C@](O)(CO)C(=O)OCC2=CCN3CC[C@@H](OC1=O)[C@@H]23 [Retrorsine],inactive: 2.22
13,CC1=C2[C@H]3OC(=O)[C@@H](C)[C@@H]3CC[C@@]2(C)C=CC1=O [alpha-Santonin],inactive: 0.807
14,Fc1ccc(C(OCCN2CCN(CCCc3ccccc3)CC2)c2ccc(F)cc2)cc1,inactive: 0.948
15,CC(C)(C)NCC(O)c1cc(Cl)c(N)c(Cl)c1 (configuration not stated) [Clenbuterol hydrochloride],active: 2.69
16,COC(=O)C1=CCCN(C)C1 [Arecoline hydrobromide],inactive: 1.69
17,C[C@@H]1NCCc2cc(O)c(O)cc21 [Salsolinol hydrobromide],active: 3
18,CCC1(CC)C(=O)C=CNC1=O [Pyrithyldione],active: 2.84
19,COc1ccc(Cc2nccc3cc(OC)c(OC)cc23)cc1OC [Papaverine hydrochloride],active: 3.92

# Quoted from the listing.
# For cell-surface Lgr5 expression, C[N+](C)(C)CCCCCCCCCC[N+](C)(C)C [Decamethonium bromide] shows inactive: 1.14
# For cell-surface Lgr5 expression, CCCCc1ccc(C(=O)O)nc1 [Fusaric acid] shows inactive: 1.67
